PubChem BioAssay AID1224829 | NIAID | 2016

Assay: 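Follow-up of TLR4-NF-kappaB regulators using six separate siRNAs for each gene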 (follow-up of hits)
Cell system: mouse RAW264.7 G9 macrophage reporter cells
Knock-down reagent: single siRNA against mouse genes, 100 nM
Timing: 2 days of siRNA knock-down, then 40 min of LPS before fixing
Conditions: LPS (Salmonella minnesota R595) at 10 ng/ml
Measurement: 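High-content images after 40 min LPS exposure; GFP-p65 nucleus to surrounding ring signal ratio, normalised to plate median and non-targeting control wells, expressed as z-score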
Scale: p65 translocation z-score and gene median z-score, per vendor: higher = more nuclear NF-kappaB p65 after LPS
Active means: 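An siRNA is called active when the mean z-score of its two replicates is above 2 or below -2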
Calls: active = changed p65 translocation (either direction); inactive = no clear change
In all, the deposit lists about 3,800 reagents; below is an unselected part. 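Calls cover raised and lowered translocation; gene median uses one vendor's three siRNAs; qiagen siRNAs acted more weakly than ambion siRNAs.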 The numbers tell different reagents against one gene apart.

With Zmat4 (GeneID 320158) #1, siRNA vendor or control pool ambion single siRNA, the entry reads p65 translocation z-score, replicate mean -2.17; p65 translocation z-score, replicate 1 = -2.23; p65 translocation z-score, replicate 2 = -2.12; gene median z-score, per vendor -2.49; active.
Zmat4 (GeneID 320158) #2, siRNA vendor or control pool ambion single siRNA scored p65 translocation z-score, replicate mean -1.77; p65 translocation z-score, replicate 1 = -2.74; p65 translocation z-score, replicate 2 = -0.792; gene median z-score, per vendor -2.49; inactive.
For Zmat4 (GeneID 320158) #3, siRNA vendor or control pool ambion single siRNA, the values are p65 translocation z-score, replicate mean -4.56; p65 translocation z-score, replicate 1 = -4.8; p65 translocation z-score, replicate 2 = -4.32; gene median z-score, per vendor -2.49; active.
For Zmat4 (GeneID 320158) #4, siRNA vendor or control pool qiagen single siRNA, the values are p65 translocation z-score, replicate mean 3.38; p65 translocation z-score, replicate 1 = 3.08; p65 translocation z-score, replicate 2 = 3.68; gene median z-score, per vendor 2.25; active.
Zmat4 (GeneID 320158) #5, siRNA vendor or control pool qiagen single siRNA gave p65 translocation z-score, replicate mean 2.82; p65 translocation z-score, replicate 1 = 1.41; p65 translocation z-score, replicate 2 = 4.23; gene median z-score, per vendor 2.25; active.
For Zmat4 (GeneID 320158) #6, siRNA vendor or control pool qiagen single siRNA, the entry reads p65 translocation z-score, replicate mean 0.163; p65 translocation z-score, replicate 1 = 1.33; p65 translocation z-score, replicate 2 = -1.01; gene median z-score, per vendor 2.25; inactive.
Trim12a (GeneID 76681) #1, siRNA vendor or control pool ambion single siRNA showed p65 translocation z-score, replicate mean -2.15; p65 translocation z-score, replicate 1 = -1.74; p65 translocation z-score, replicate 2 = -2.55; gene median z-score, per vendor -3.96; active.
Trim12a (GeneID 76681) #2, siRNA vendor or control pool ambion single siRNA showed p65 translocation z-score, replicate mean -5.14; p65 translocation z-score, replicate 1 = -5.08; p65 translocation z-score, replicate 2 = -5.21; gene median z-score, per vendor -3.96; active.
With Trim12a (GeneID 76681) #3, siRNA vendor or control pool ambion single siRNA the deposit lists p65 translocation z-score, replicate mean -3.96; p65 translocation z-score, replicate 1 = -4.07; p65 translocation z-score, replicate 2 = -3.84; gene median z-score, per vendor -3.96; active.
For Trim12a (GeneID 76681) #4, siRNA vendor or control pool qiagen single siRNA the deposit lists p65 translocation z-score, replicate mean 1.39; p65 translocation z-score, replicate 1 = 0.706; p65 translocation z-score, replicate 2 = 2.06; gene median z-score, per vendor 0.847; inactive.
For Trim12a (GeneID 76681) #5, siRNA vendor or control pool qiagen single siRNA, the values are p65 translocation z-score, replicate mean 0.674; p65 translocation z-score, replicate 1 = 0.361; p65 translocation z-score, replicate 2 = 0.987; gene median z-score, per vendor 0.847; inactive.
Trim12a (GeneID 76681) #6, siRNA vendor or control pool qiagen single siRNA gave p65 translocation z-score, replicate mean -0.703; p65 translocation z-score, replicate 1 = -3.16; p65 translocation z-score, replicate 2 = 1.76; gene median z-score, per vendor 0.847; inactive.
Il17a (GeneID 16171) #1, siRNA vendor or control pool ambion single siRNA showed p65 translocation z-score, replicate mean 11; p65 translocation z-score, replicate 1 = 12.7; p65 translocation z-score, replicate 2 = 9.32; gene median z-score, per vendor 1.23; active.
Il17a (GeneID 16171) #2, siRNA vendor or control pool ambion single siRNA gave p65 translocation z-score, replicate mean 1.23; p65 translocation z-score, replicate 1 = 2.18; p65 translocation z-score, replicate 2 = 0.273; gene median z-score, per vendor 1.23; inactive.
Il17a (GeneID 16171) #3, siRNA vendor or control pool ambion single siRNA scored p65 translocation z-score, replicate mean -2.24; p65 translocation z-score, replicate 1 = -2.02; p65 translocation z-score, replicate 2 = -2.46; gene median z-score, per vendor 1.23; active.
For Il17a (GeneID 16171) #4, siRNA vendor or control pool qiagen single siRNA, the entry reads p65 translocation z-score, replicate mean -1.34; p65 translocation z-score, replicate 1 = 0.711; p65 translocation z-score, replicate 2 = -3.39; gene median z-score, per vendor 0.106; inactive.
For Il17a (GeneID 16171) #5, siRNA vendor or control pool qiagen single siRNA, the values are p65 translocation z-score, replicate mean -0.175; p65 translocation z-score, replicate 1 = 0.106; p65 translocation z-score, replicate 2 = -0.457; gene median z-score, per vendor 0.106; inactive.
Il17a (GeneID 16171) #6, siRNA vendor or control pool qiagen single siRNA showed p65 translocation z-score, replicate mean 0.285; p65 translocation z-score, replicate 1 = 0.285; gene median z-score, per vendor 0.106; inactive.
With Ctnna1 (GeneID 12385) #1, siRNA vendor or control pool ambion single siRNA, the values are p65 translocation z-score, replicate mean 0.549; p65 translocation z-score, replicate 1 = 1.16; p65 translocation z-score, replicate 2 = -0.064; gene median z-score, per vendor -1; inactive.
Ctnna1 (GeneID 12385) #2, siRNA vendor or control pool ambion single siRNA gave p65 translocation z-score, replicate mean -3.68; p65 translocation z-score, replicate 1 = -3.67; p65 translocation z-score, replicate 2 = -3.69; gene median z-score, per vendor -1; active.
With Ctnna1 (GeneID 12385) #3, siRNA vendor or control pool ambion single siRNA, the values are p65 translocation z-score, replicate mean 0.266; p65 translocation z-score, replicate 1 = 2.48; p65 translocation z-score, replicate 2 = -1.94; gene median z-score, per vendor -1; inactive.
With Ctnna1 (GeneID 12385) #4, siRNA vendor or control pool qiagen single siRNA, the entry reads p65 translocation z-score, replicate mean 1.12; p65 translocation z-score, replicate 1 = 0.576; p65 translocation z-score, replicate 2 = 1.67; gene median z-score, per vendor 0.156; inactive.
For Ctnna1 (GeneID 12385) #5, siRNA vendor or control pool qiagen single siRNA, the values are p65 translocation z-score, replicate mean -0.445; p65 translocation z-score, replicate 1 = -0.264; p65 translocation z-score, replicate 2 = -0.626; gene median z-score, per vendor 0.156; inactive.
For Ctnna1 (GeneID 12385) #6, siRNA vendor or control pool qiagen single siRNA the deposit lists gene median z-score, per vendor 0.156; inactive.

5 successive entries from above:
Il17a (GeneID 16171) #1, siRNA vendor or control pool ambion single siRNA | p65 translocation z-score, replicate mean: 11; p65 translocation z-score, replicate 1: 12.7; p65 translocation z-score, replicate 2: 9.32; gene median z-score, per vendor: 1.23; call: active
Il17a (GeneID 16171) #2, siRNA vendor or control pool ambion single siRNA | p65 translocation z-score, replicate mean: 1.23; p65 translocation z-score, replicate 1: 2.18; p65 translocation z-score, replicate 2: 0.273; gene median z-score, per vendor: 1.23; call: inactive
Il17a (GeneID 16171) #3, siRNA vendor or control pool ambion single siRNA | p65 translocation z-score, replicate mean: -2.24; p65 translocation z-score, replicate 1: -2.02; p65 translocation z-score, replicate 2: -2.46; gene median z-score, per vendor: 1.23; call: active
Il17a (GeneID 16171) #4, siRNA vendor or control pool qiagen single siRNA | p65 translocation z-score, replicate mean: -1.34; p65 translocation z-score, replicate 1: 0.711; p65 translocation z-score, replicate 2: -3.39; gene median z-score, per vendor: 0.106; call: inactive
Il17a (GeneID 16171) #5, siRNA vendor or control pool qiagen single siRNA | p65 translocation z-score, replicate mean: -0.175; p65 translocation z-score, replicate 1: 0.106; p65 translocation z-score, replicate 2: -0.457; gene median z-score, per vendor: 0.106; call: inactive

The listing continues.
For Lrrc14 (GeneID 223664) #1, siRNA vendor or control pool ambion single siRNA the deposit lists p65 translocation z-score, replicate mean -1.26; p65 translocation z-score, replicate 1 = -1.65; p65 translocation z-score, replicate 2 = -0.872; gene median z-score, per vendor -2.47; inactive.
Lrrc14 (GeneID 223664) #2, siRNA vendor or control pool ambion single siRNA scored p65 translocation z-score, replicate mean -2.47; p65 translocation z-score, replicate 1 = -2.62; p65 translocation z-score, replicate 2 = -2.33; gene median z-score, per vendor -2.47; active.
Lrrc14 (GeneID 223664) #3, siRNA vendor or control pool ambion single siRNA scored p65 translocation z-score, replicate mean -3.56; p65 translocation z-score, replicate 1 = -2.87; p65 translocation z-score, replicate 2 = -4.26; gene median z-score, per vendor -2.47; active.
Lrrc14 (GeneID 223664) #4, siRNA vendor or control pool qiagen single siRNA gave p65 translocation z-score, replicate mean -3.99; p65 translocation z-score, replicate 1 = -6.11; p65 translocation z-score, replicate 2 = -1.86; gene median z-score, per vendor -1.83; active.
Lrrc14 (GeneID 223664) #5, siRNA vendor or control pool qiagen single siRNA scored p65 translocation z-score, replicate mean -1.87; p65 translocation z-score, replicate 1 = -1.95; p65 translocation z-score, replicate 2 = -1.8; gene median z-score, per vendor -1.83; inactive.
For Lrrc14 (GeneID 223664) #6, siRNA vendor or control pool qiagen single siRNA, the entry reads p65 translocation z-score, replicate mean -0.694; p65 translocation z-score, replicate 1 = -0.914; p65 translocation z-score, replicate 2 = -0.474; gene median z-score, per vendor -1.83; inactive.
Prkab1 (GeneID 19079) #1, siRNA vendor or control pool ambion single siRNA showed p65 translocation z-score, replicate mean 1.68; p65 translocation z-score, replicate 1 = 1.92; p65 translocation z-score, replicate 2 = 1.44; gene median z-score, per vendor -1.37; inactive.
Prkab1 (GeneID 19079) #2, siRNA vendor or control pool ambion single siRNA scored p65 translocation z-score, replicate mean -2.08; p65 translocation z-score, replicate 1 = -2.83; p65 translocation z-score, replicate 2 = -1.33; gene median z-score, per vendor -1.37; active.
For Prkab1 (GeneID 19079) #3, siRNA vendor or control pool ambion single siRNA, the entry reads p65 translocation z-score, replicate mean -3.34; p65 translocation z-score, replicate 1 = -1.41; p65 translocation z-score, replicate 2 = -5.27; gene median z-score, per vendor -1.37; active.
With Prkab1 (GeneID 19079) #4, siRNA vendor or control pool qiagen single siRNA, the values are p65 translocation z-score, replicate mean 0.783; p65 translocation z-score, replicate 1 = 1.87; p65 translocation z-score, replicate 2 = -0.302; gene median z-score, per vendor 0.221; inactive.
Prkab1 (GeneID 19079) #5, siRNA vendor or control pool qiagen single siRNA showed p65 translocation z-score, replicate mean -1.89; p65 translocation z-score, replicate 1 = -1.4; p65 translocation z-score, replicate 2 = -2.39; gene median z-score, per vendor 0.221; inactive.
With Prkab1 (GeneID 19079) #6, siRNA vendor or control pool qiagen single siRNA, the values are p65 translocation z-score, replicate mean 2.29; p65 translocation z-score, replicate 1 = 0.745; p65 translocation z-score, replicate 2 = 3.83; gene median z-score, per vendor 0.221; active.
